# Data published in US11957716B2 (Immatics Biotechnologies GmbH, priority 2021, dated 2024).
# Tested on: HLA molecules from shock-frozen tissue samples
# Experiment: Identification and relative quantitation of tumor associated peptides presented on the cell surface by LC-MS (XPRESIDENT)
# Design: species or system human
# Details: all indications on which the peptide was identified at least once, independent of the HLA typing of the sample or the antibody used
row,Substance,Peptide presentation on cancer types
1,80 (IFDLSDPRF; listed as Homo sapiens) [compound 80],"GBC, GC, HNSCC, MEL, UBC, UEC"
2,81 (KLIAGLIFLK; listed as Homo sapiens) [compound 81],"AML, NHL, OC, RCC, UBC, UEC"
3,82 (VLQSLQHEL; listed as Homo sapiens) [compound 82],RCC
4,83 (EAAPNIMHY; listed as Homo sapiens) [compound 83],PRCA
5,84 (KEFAFLEHSL; listed as Homo sapiens) [compound 84],"CRC, GC, HNSCC, NSCLC, OC, OSCAR, UBC, UEC"
6,85 (LPHPVNSGL; listed as Homo sapiens) [compound 85],"CCC, NSCLC, NSCLC, NSCLC, UBC"
7,86 (VANDRLSFL; listed as Homo sapiens) [compound 86],"NSCLC, PRCA"
8,87 (LHLNPGLSF; listed as Homo sapiens) [compound 87],"BRCA, GC, MEL, NHL, PACA"
9,88 (KVGAVVHLK; listed as Homo sapiens) [compound 88],"BRCA, HCC, NSCLC, OC, OSCAR, RCC, UBC, UEC"
10,89 (SPSSPLLLLA; listed as Homo sapiens) [compound 89],"BRCA, GC, OC, SCLC, UBC"
11,90 (LALLGAPPPK; listed as Homo sapiens) [compound 90],"AML, CCC, CRC, GBC, GC, HCC, HNSCC, NSCLC, OC, OSCAR, PACA, PRCA, RCC, SCLC, UEC"
12,91 (RIVTYIVAK; listed as Homo sapiens) [compound 91],"AML, BRCA, CCC, HCC, MEL, NHL, NSCLC, OC, OSCAR, PACA, PRCA, UBC, UEC"
13,92 (LNFSDVFLY; listed as Homo sapiens) [compound 92],"GC, HNSCC, MEL, NHL, NSCLC, PRCA"
14,93 (SPIGLSLIL; listed as Homo sapiens) [compound 93],"CCC, HNSCC, NSCLC, OSCAR, SCLC, UBC"
15,94 (AVFLGNPSNQK; listed as Homo sapiens) [compound 94],"CCC, GC, NHL, NSCLC, OSCAR"
16,95 (YAFRNQTL; listed as Homo sapiens) [compound 95],"PRCA, SCLC"
17,96 (HPRESLNMLVAF; listed as Homo sapiens) [compound 96],"CCC, GBC, MEL, NSCLC, PACA, UBC"
18,97 (ALIVLHLSL; listed as Homo sapiens) [compound 97],"AML, CRC, MEL, NHL, OSCAR"
19,98 (FSEIFQDFL; listed as Homo sapiens) [compound 98],"AML, BRCA, GC, HNSCC, NHL, RCC, UEC"
20,99 (RADEEQASF; listed as Homo sapiens) [compound 99],"CRC, NSCLC, OSCAR, PACA, UBC, UEC"
21,100 (SPAPSLARFLSL; listed as Homo sapiens) [compound 100],"BRCA, HNSCC, NSCLC, MEL"
22,101 (ATNSFLLIK; listed as Homo sapiens) [compound 101],"GC, NSCLC, SCLC, PACA, PRCA"
23,102 (FLLLEKGGEL; listed as Homo sapiens) [compound 102],"BRCA, CRC, HCC, HNSCC, NSCLC, PACA"
24,103 (RPWLSSPTGL; listed as Homo sapiens) [compound 103],"GBC, GC, HNSCC, NHL, NSCLC, OC, PACA, RCC"

row,Substance,Peptide presentation on cancer types
1,104 (GSLQTLPPK; listed as Homo sapiens) [compound 104],"GBC, OSCAR, UBC"
2,105 (LVFESVVAA; listed as Homo sapiens) [compound 105],"GBC, HNSCC, NHL, NSCLC, RCC, UBC"
3,106 (GLLDAFLRL; listed as Homo sapiens) [compound 106],HCC
4,107 (SVISVLTTPK; listed as Homo sapiens) [compound 107],"GBC, NSCLC, OSCAR, UBC, UEC"
5,108 (SLQESLPNA; listed as Homo sapiens) [compound 108],AML
6,109 (MPKLFLTAC; listed as Homo sapiens) [compound 109],"AML, CCC, CLL, CRC, GC, HCC, NSCLC, RCC"
7,110 (APSLARFLSL; listed as Homo sapiens) [compound 110],"BRCA, HNSCC, MEL, NSCLC, OC, OSCAR, RCC, SCLC"
8,111 (RPIWDVRSA; listed as Homo sapiens) [compound 111],"HNSCC, NSCLC, SCLC"
9,112 (ETYGTFVLR; listed as Homo sapiens) [compound 112],"BRCA, CCC, CRC, GBC, HCC, HNSCC, NSCLC, OC, OSCAR, SCLC, RCC, UBC"
10,113 (ALGPMAFRV; listed as Homo sapiens) [compound 113],"BRCA, CRC, NSCLC, OC, OSCAR, PACA, RCC"
11,114 (VPHHLLSSV; listed as Homo sapiens) [compound 114],"GBC, GC, PACA, RCC"
12,115 (LWEEKPVCL; listed as Homo sapiens) [compound 115],"CCC, CRC, GBC, HCC, NSCLC, PACA, PRCA, UBC, UEC"
13,116 (IYLTKSNLVNM; listed as Homo sapiens) [compound 116],"HNSCC, NHL, NSCLC, OSCAR"
14,117 (GEAAAARPV; listed as Homo sapiens) [compound 117],"HCC, MEL, NSCLC"
15,118 (RLLRLIPIL; listed as Homo sapiens) [compound 118],"GBC, HNSCC, MEL, NSCLC, OC, PACA, RCC"
16,119 (VLHGLLFTL; listed as Homo sapiens) [compound 119],"AML, NHL, NSCLC, RCC"
17,120 (APGPRSQGL; listed as Homo sapiens) [compound 120],"BRCA, CRC, GC, PRCA, UBC"
18,121 (ILVTAWKGV; listed as Homo sapiens) [compound 121],"GBC, GC, HCC, NHL, NSCLC, OSCAR, RCC"
19,122 (FTQKINSTW; listed as Homo sapiens) [compound 122],"BRCA, CCC, CLL, CRC, GBC, GC, HNSCC, MEL, NSCLC, PRCA, RCC, SCLC, UBC"
20,123 (TYLESSVRI; listed as Homo sapiens) [compound 123],HCC
21,124 (SPSSNSREL; listed as Homo sapiens) [compound 124],"AML, CRC, GBC, GC, HNSCC, MEL, OC, UBC"
22,125 (ALAQGANLK; listed as Homo sapiens) [compound 125],"GB, MEL, RCC"
23,126 (NPELLVILL; listed as Homo sapiens) [compound 126],"HNSCC, NSCLC, OSCAR, RCC"
24,127 (TVATQVATSK; listed as Homo sapiens) [compound 127],"BRCA, HNSCC, NSCLC, OC, OSCAR, UBC"

row,Substance,Peptide presentation on cancer types
1,128 (MTFVPLLAR; listed as Homo sapiens) [compound 128],"CRC, GBC, GC, HCC, NHL, MEL, NSCLC, OC, OSCAR, PACA, UBC, UEC"
2,129 (IPISIFKMA; listed as Homo sapiens) [compound 129],"CCC, HCC, NHL, PACA, RCC, SCLC, UBC"
3,130 (ITPDSIPSV; listed as Homo sapiens) [compound 130],"AML, GBC, NHL, OC, SCLC"
4,131 (TILAKQNVL; listed as Homo sapiens) [compound 131],"AML, HCC, OC, RCC"
5,132 (LYLETRSEF; listed as Homo sapiens) [compound 132],"BRCA, GBC, GC, HCC, MEL, NSCLC, OC, OSCAR, PACA, PRCA, RCC"
6,133 (KFPPSASEF; listed as Homo sapiens) [compound 133],"CRC, GC, NSCLC, PRCA, UBC"
7,134 (MPCTTILRI; listed as Homo sapiens) [compound 134],"AML, CLL, CRC, GC, HCC, HNSCC, MEL, NHL, NSCLC, OSCAR, RCC, PACA, PRCA, UBC, UEC"
8,135 (SADTAELLL; listed as Homo sapiens) [compound 135],"CCC, HCC"
9,136 (YSSEIWDLY; listed as Homo sapiens) [compound 136],"BRCA, GBC, HCC, MEL, UEC"
10,137 (MPIQVLKGL; listed as Homo sapiens) [compound 137],"BRCA, GC, NHL, RCC, PRCA"
11,138 (RTLPLEGSPK; listed as Homo sapiens) [compound 138],"BRCA, CCC, GBM, NSCLC, PACA, PRCA, UEC"
12,139 (EEGRIITKW; listed as Homo sapiens) [compound 139],"BRCA, CRC, CCC, GBC, HCC, HNSCC, MEL, NSCLC, OSCAR, PACA, RCC, UBC"
13,140 (QPAPQPLL; listed as Homo sapiens) [compound 140],"BRCA, CRC, HNSCC, NHL, OSCAR, RCC, SCLC, UBC"
14,141 (REVAGASAL; listed as Homo sapiens) [compound 141],"NSCLC, PACA"
15,142 (YMLEMDNSMKI; listed as Homo sapiens) [compound 142],"CCC, CRC, NSCLC, PACA"
16,143 (AVLGALLRH; listed as Homo sapiens) [compound 143],"BRCA, GC, GBC, HCC, NSCLC, OSCARPACA, PRCA, RCC, SCLC"
17,144 (IIVPSFYK; listed as Homo sapiens) [compound 144],"CCC, CRC, GBC, GBM, GC, HCC, MEL, NSCLC, RCC"
18,145 (HLFSVLSAI; listed as Homo sapiens) [compound 145],"BRCA, CCC, CLL, CRC, GBC, GC, HCC, HNSCC, MEL, NHL, NSCLC, OC, OSCAR, PACA, RCC, SCLC"
19,146 (KVLVDFLLK; listed as Homo sapiens) [compound 146],"AML, BRCA, CCC, CRC, HNSCC, MEL, NHL, RCC, SCLC, UBC"
20,147 (VEAPHLPSF; listed as Homo sapiens) [compound 147],"BRCA, CCC, CRC, GBC, GBM, GC, HCC, HNSCC, MEL, NHL, NSCLC, OC, OSCAR, PACA, RCC, SCLC, UBC, UEC"
21,148 (SVYMATTLK; listed as Homo sapiens) [compound 148],"NSCLC, OC, PACA, UBC, UEC"
22,149 (SMNSKALRWK; listed as Homo sapiens) [compound 149],"CCC, MEL, NHL"
